Measured values published in the supplement of paper PMC12819154, “High-throughput peptide-centric local stability assay extends protein–ligand identification to membrane proteins, tissues and bacteria” (Nature Structural & Molecular Biology, 2025).
The list shows a part of the results. Small differences around the control level are noise.

Amino acid sequences for entries named in this document (tags omitted). A change or cut given only in a name is not applied to a line headed by its entry.
UniProt Q13057: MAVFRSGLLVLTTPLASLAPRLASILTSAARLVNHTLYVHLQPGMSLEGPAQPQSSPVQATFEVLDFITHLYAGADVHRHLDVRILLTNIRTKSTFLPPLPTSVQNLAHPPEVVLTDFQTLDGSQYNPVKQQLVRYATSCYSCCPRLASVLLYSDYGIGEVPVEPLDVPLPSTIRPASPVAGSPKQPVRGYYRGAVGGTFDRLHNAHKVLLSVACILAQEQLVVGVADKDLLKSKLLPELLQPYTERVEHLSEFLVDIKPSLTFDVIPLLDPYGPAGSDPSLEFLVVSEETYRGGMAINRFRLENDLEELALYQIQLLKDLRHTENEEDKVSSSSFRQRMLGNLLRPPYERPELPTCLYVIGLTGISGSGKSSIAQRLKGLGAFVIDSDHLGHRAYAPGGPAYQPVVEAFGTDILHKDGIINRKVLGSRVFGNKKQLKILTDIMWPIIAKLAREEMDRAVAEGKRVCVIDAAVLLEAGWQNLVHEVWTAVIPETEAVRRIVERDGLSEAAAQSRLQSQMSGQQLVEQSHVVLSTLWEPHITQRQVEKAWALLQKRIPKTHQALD
UniProt Q00839, whole entry: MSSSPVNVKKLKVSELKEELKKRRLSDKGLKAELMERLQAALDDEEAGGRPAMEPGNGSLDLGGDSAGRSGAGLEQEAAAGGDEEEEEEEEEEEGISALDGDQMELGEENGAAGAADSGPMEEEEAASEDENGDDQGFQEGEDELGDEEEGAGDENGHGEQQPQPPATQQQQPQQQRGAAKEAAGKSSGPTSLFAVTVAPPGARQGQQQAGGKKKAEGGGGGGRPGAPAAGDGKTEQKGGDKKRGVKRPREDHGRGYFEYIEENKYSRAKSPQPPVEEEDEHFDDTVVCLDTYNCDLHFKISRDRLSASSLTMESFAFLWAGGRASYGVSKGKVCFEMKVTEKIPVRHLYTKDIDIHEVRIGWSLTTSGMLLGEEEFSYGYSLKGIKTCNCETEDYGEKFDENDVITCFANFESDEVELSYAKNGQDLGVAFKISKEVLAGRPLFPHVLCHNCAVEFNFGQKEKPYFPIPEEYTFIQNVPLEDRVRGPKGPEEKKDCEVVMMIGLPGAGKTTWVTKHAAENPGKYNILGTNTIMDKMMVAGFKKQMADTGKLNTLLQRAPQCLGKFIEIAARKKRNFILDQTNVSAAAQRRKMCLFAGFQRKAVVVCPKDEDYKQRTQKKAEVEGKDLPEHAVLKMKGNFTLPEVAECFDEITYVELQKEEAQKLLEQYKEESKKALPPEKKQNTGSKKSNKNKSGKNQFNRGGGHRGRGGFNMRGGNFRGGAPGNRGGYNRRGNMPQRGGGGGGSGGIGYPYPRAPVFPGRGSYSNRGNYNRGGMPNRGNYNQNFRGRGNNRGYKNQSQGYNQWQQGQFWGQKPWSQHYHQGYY
UniProt Q01105, whole entry: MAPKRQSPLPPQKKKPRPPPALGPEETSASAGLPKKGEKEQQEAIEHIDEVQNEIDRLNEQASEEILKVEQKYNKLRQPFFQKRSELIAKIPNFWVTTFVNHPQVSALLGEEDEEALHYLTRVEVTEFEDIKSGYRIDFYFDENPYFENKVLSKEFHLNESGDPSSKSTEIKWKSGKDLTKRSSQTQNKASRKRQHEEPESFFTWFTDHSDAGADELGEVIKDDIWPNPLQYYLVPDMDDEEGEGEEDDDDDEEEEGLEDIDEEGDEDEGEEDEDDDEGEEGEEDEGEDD
UniProt Q03933: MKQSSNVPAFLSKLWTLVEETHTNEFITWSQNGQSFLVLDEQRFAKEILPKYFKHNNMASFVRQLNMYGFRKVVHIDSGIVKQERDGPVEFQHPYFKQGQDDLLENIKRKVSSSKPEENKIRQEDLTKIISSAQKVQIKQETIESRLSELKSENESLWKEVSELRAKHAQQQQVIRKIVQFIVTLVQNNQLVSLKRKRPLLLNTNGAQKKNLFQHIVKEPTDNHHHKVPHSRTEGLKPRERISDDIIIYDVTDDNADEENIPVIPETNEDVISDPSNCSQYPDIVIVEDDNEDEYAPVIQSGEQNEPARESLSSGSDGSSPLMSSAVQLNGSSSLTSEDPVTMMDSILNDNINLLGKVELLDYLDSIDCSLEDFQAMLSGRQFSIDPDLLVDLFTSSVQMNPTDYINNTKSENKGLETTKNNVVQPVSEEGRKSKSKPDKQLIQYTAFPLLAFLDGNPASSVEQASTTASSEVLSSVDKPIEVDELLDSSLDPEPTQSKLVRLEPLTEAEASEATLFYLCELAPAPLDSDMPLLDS
UniProt Q06609, whole entry: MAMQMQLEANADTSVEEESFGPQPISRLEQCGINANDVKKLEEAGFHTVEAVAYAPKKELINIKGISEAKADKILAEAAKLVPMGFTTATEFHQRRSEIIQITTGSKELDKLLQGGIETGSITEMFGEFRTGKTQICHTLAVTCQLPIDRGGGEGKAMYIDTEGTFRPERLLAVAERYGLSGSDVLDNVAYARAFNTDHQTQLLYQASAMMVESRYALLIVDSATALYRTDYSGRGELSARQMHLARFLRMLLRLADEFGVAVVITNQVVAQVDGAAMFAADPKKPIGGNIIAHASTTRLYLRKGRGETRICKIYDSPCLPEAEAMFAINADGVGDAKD
UniProt Q03468, whole entry: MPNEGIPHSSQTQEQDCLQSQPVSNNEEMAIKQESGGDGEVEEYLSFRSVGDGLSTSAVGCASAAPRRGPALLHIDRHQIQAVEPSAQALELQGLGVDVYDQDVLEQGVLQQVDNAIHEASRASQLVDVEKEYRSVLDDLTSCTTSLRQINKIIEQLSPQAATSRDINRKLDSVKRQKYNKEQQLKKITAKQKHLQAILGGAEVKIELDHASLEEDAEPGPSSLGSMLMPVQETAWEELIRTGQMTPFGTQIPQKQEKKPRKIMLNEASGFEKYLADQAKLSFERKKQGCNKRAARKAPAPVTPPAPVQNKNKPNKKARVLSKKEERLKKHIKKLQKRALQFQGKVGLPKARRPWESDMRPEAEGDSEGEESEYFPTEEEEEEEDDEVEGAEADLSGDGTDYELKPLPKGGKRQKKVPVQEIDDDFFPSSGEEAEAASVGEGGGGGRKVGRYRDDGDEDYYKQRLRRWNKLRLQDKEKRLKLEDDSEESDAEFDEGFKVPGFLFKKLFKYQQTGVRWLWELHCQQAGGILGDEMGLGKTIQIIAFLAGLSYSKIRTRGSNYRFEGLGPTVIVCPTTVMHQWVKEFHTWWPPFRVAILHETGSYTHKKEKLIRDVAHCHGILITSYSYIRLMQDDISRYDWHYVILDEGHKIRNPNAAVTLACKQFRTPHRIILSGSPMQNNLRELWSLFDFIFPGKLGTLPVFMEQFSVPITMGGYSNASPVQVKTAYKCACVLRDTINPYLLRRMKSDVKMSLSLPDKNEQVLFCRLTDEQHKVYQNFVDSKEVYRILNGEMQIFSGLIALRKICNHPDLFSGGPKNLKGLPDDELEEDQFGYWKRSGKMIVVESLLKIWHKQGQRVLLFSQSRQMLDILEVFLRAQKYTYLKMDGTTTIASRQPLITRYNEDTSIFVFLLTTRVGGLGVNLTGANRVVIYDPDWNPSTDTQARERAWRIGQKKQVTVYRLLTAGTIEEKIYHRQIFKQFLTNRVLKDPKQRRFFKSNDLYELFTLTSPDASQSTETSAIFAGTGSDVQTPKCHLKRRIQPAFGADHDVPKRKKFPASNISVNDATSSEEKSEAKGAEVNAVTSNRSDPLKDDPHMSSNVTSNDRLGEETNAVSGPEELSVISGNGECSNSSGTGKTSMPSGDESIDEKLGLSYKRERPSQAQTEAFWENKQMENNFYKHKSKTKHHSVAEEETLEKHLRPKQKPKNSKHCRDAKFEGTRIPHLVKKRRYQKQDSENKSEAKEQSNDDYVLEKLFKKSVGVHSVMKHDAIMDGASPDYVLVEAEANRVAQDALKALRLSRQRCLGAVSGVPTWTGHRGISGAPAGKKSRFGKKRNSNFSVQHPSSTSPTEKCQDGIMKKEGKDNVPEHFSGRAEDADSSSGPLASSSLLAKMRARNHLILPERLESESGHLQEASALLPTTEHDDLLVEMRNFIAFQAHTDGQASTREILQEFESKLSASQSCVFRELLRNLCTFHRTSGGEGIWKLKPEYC
UniProt Q02809: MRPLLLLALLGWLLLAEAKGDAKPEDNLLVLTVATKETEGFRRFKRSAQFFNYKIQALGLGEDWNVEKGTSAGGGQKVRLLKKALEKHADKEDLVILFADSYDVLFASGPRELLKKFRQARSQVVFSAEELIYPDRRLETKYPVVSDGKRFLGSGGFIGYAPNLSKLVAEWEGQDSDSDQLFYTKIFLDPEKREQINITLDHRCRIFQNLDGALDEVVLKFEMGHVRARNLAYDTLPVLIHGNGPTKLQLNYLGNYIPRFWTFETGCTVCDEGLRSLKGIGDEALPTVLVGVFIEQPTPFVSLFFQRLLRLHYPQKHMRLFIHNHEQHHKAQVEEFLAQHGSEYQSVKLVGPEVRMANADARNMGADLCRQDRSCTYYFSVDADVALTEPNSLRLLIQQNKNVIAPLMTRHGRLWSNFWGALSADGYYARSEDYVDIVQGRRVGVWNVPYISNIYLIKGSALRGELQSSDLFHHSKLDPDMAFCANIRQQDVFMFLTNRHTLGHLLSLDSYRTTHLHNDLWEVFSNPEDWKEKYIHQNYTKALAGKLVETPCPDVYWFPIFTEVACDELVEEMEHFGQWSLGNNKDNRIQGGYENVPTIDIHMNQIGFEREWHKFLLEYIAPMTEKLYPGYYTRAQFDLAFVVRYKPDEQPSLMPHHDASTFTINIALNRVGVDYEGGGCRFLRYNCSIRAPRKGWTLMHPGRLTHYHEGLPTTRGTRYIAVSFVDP
UniProt Q05D60: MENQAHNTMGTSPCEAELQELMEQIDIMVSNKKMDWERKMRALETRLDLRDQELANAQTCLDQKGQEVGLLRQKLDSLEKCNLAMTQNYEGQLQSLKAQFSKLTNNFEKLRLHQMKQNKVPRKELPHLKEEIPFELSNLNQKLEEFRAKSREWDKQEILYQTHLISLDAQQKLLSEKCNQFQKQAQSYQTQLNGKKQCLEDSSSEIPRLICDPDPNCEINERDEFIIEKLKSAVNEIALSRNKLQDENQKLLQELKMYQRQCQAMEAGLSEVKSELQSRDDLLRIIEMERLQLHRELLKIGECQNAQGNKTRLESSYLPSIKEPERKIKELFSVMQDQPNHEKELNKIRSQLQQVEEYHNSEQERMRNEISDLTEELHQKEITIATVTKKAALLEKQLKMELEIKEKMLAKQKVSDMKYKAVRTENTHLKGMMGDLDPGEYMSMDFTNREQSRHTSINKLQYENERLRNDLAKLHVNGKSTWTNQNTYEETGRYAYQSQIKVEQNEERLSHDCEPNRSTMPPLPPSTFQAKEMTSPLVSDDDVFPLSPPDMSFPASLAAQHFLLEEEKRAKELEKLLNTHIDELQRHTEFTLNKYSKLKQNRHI

Compound: Cc1nc(Nc2ncc(C(=O)Nc3c(C)cccc3Cl)s2)cc(N2CCN(CCO)CC2)n1 [dasatinib]
Test: log2 fold change of tryptic peptide abundance, ligand vs vehicle (limited proteolysis) (log2 ratio); higher = more trypsin-susceptible (destabilized)
Details: ligand concentration: 5 uM; sample: K562 cleared lysate

| Target | log2 fold change |
| --- | --- |
| COASY (peptide sequence: LASILTSAAR, peptide start residue: 22) (UniProt Q13057) | -0.051 |
| HNRNPU (peptide sequence: GPEEKKDCEVVMMIGLPGAGK, peptide start residue: 490) (UniProt Q00839) | 0.276 |
| SET (peptide sequence: LNEQASEEILKVEQK, peptide start residue: 58) (UniProt Q01105) | 0.268 |
| HSF2 (peptide sequence: HAQQQQVIR, peptide start residue: 168) (UniProt Q03933) | -0.559 |
| RAD51 (peptide sequence: LVPMGFTTATEFHQR, peptide start residue: 81) (UniProt Q06609) | 0.0792 |
| ERCC6 (peptide sequence: ASQLVDVEK, peptide start residue: 123) (UniProt Q03468) | 0.333 |
| PLOD1 (peptide sequence: HTLGHLLSLDSYR, peptide start residue: 500) (UniProt Q02809) | -0.638 |
| DEUP1 (peptide sequence: ELFSVMQDQPNHEK, peptide start residue: 330) (UniProt Q05D60) | -0.616 |

Some of the entries above in another layout:
Target	log2 fold change
ERCC6 (peptide sequence: ASQLVDVEK, peptide start residue: 123) (UniProt Q03468)	0.333
PLOD1 (peptide sequence: HTLGHLLSLDSYR, peptide start residue: 500) (UniProt Q02809)	-0.638
